This assay concerns L. donovani IRFP axenic amastigotes. Kind of assay: Primary single-concentration screening on axenic amastigotes, growth inhibition at 72 h. The format is cell-based. Particulars: Leishmania donovani.

Where two headings read alike, the source gives them in different places.

What is called inhibition is the drop in the measured response relative to a control, in per cent. In the case of `CN[C@@H]1C[C@H]2O[C@@](C)([C@@H]1OC)n1c3ccccc3c3c4c(c5c6ccccc6n2c5c31)C(=O)NC4` [Staurosporine], the inhibition at 1 µM (read-out: Growth Inhibition (%) at 72h, 1 µM_Exp1) is 96.3% and the inhibition at 1 µM (read-out: Growth Inhibition (%) at 72h, 1 µM_Exp2) was found to be 98.7%. Moreover, the inhibition at 10 µM reads like this: (read-out: Growth Inhibition (%) at 72h, 10 µM_Exp1) 100%; (read-out: Growth Inhibition (%) at 72h, 10 µM_Exp2) 99.8%.

The record behind these values is article PMC12608155, “Discovery of Potential Antileishmanial Compounds Through Phenotypic Screening of an Alkaloid Library” (Molecules, 2025).
